Reference: article PMC6443190, “Regulation of anthocyanin accumulation via MYB75/HAT1/TPL-mediated transcriptional repression” (PLoS Genetics, 2019)
These are yes or no findings as the source states them, for the method shown. Binding can be weak; no strength is given. Sequences can lack the tags named with a protein.

Assays:
[1] = target: MYB75 R2 domain (pull-down fragment) (Arabidopsis thaliana); assay: pull-down; Ni-NTA beads with 5 ug HIS protein incubated with 5 ug MBP protein; 150 mM NaCl, 20 mM Tris, 0.2% Triton X-100, pH 8.0, 4 C, 2 h; anti-MBP blot; both purified
[2] = target: MYB75 C-terminal fragment (pull-down fragment) (Arabidopsis thaliana); assay: as above
[3] = target: TPL N terminus (pGBKT7 fusion, yeast two-hybrid) (Arabidopsis thaliana); assay: two-hybrid; directed assay; yeast AH109 with pairs of pGADT7 and pGBKT7 plasmids; growth on SD-Leu/-Trp/-Ade/-His

Binder	binding [1]	binding [2]	binding [3]
MBP-HAT1 (protein, UniProt P46600 1-282) MMMGKEDLGLSLSLGFAQNHPLQLNLKPTSSPMSNLQMFPWNQTLVSSSDQQKQQFLRKIDVNSLPTTVDLEEETGVSSPNSTISSTVSGKRRSTEREGTSGGGCGDDLDITLDRSSSRGTSDEEEDYGGETCRKKLRLSKDQSAVLEDTFKEHNTLNPKQKLALAKKLGLTARQVEVWFQNRRARTKLKQTEVDCEYLKRCVEKLTEENRRLEKEAAELRALKLSPRLYGQMSPPTTLLMCPSCERVAGPSSSNHNQRSVSLSPWLQMAHGSTFDVMRPRS	binds	binds weakly	
HAT1 (pGADT7 fusion, yeast two-hybrid) (protein, UniProt P46600 1-282) MMMGKEDLGLSLSLGFAQNHPLQLNLKPTSSPMSNLQMFPWNQTLVSSSDQQKQQFLRKIDVNSLPTTVDLEEETGVSSPNSTISSTVSGKRRSTEREGTSGGGCGDDLDITLDRSSSRGTSDEEEDYGGETCRKKLRLSKDQSAVLEDTFKEHNTLNPKQKLALAKKLGLTARQVEVWFQNRRARTKLKQTEVDCEYLKRCVEKLTEENRRLEKEAAELRALKLSPRLYGQMSPPTTLLMCPSCERVAGPSSSNHNQRSVSLSPWLQMAHGSTFDVMRPRS			binds
